Values of other authors, collected in patent US7863324B2, “Chroman-derived compounds for the treatment of cancer” (Wisconsin Alumni Research Foundation, priority 2003, dated 2011).
At least one structure is not confirmed: it was looked up by name or label, or the drawing left a doubt.

Test system: LNCaP human prostate carcinoma cells
Settings: The Prostate 14: 103-115 (1989); cited from earlier work

In the case of `CC(C)C(=O)Nc1ccc([N+](=O)[O-])c(C(F)(F)F)c1` [flutamide], the “effect on growth of LNCaP cells” value is listed as “stimulate, instead of inhibit, the growth”.
